Measured values: article PMC10848721
Results are given in words; binding and its absence hold for the method and conditions named. In cells and extracts the contact can be indirect. These calls come from enrichment with a bait or labelling near it, and not all partners need be listed. Where a sequence is shown, tags or fusion partners need not be part of it.

By UniProt entry, the sequences of proteins in these tests, tags left out. Where a name states a change or a piece, a line headed by the entry shows the natural chain unless it says otherwise. Chains listed by the source or under a name are the forms on record and can include a tag or linker. Residues count along the entry.
UniProt P20674, residues 42-150: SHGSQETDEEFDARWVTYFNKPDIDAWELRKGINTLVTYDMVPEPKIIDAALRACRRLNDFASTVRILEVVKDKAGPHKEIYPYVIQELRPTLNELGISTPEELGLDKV
UniProt O43678: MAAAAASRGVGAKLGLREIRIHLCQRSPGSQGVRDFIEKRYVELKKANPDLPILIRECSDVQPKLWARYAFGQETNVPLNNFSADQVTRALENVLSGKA
UniProt P61026: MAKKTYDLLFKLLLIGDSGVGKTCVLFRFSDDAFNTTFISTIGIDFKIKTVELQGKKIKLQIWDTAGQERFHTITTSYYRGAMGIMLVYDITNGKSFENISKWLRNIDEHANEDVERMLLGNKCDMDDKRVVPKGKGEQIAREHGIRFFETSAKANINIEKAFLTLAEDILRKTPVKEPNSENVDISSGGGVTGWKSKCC
endogenous TMEM55B (Q86T03-2, form named): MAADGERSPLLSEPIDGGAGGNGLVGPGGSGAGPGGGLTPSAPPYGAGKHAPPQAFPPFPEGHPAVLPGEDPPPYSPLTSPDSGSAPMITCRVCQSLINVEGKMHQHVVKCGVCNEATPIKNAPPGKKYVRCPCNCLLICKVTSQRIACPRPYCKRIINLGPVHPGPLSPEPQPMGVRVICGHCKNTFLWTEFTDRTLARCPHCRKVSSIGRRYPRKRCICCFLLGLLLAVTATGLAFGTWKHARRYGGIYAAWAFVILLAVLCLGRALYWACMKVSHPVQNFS

B1: Rab34 (protein, UniProt Q9BZG1 1-259)
chain: MNILAPVRRDRVLAELPQCLRKEAALHGHKDFHPRVTCACQEHRTGTVGFKISKVIVVGDLSVGKTCLINRFCKDTFDKNYKATIGVDFEMERFEVLGIPFSLQLWDTAGQERFKCIASTYYRGAQAIIIVFNLNDVASLEHTKQWLADALKENDPSSVLLFLVGSKKDLSTPAQYALMEKDALQVAQEMKAEYWAVSSLTGENVREFFFRVAALTFEANVLAELEKSGARRIGDVVRINSDDSNLYLTASKKKPTCCP

Each molecule was assayed against T1, RILPL1-GFP WT (UniProt Q5EBL4) (assay: affinity purification with mass spectrometry; GFP IPs from HEK293 cells transiently transfected with RILPL1-GFP WT or RILPL1-GFP [R293A], LRRK2[Y1699C] and HA-Rab8A[Q67L]; TMT label-based MS, WT compared with R293A).
T1 sequence: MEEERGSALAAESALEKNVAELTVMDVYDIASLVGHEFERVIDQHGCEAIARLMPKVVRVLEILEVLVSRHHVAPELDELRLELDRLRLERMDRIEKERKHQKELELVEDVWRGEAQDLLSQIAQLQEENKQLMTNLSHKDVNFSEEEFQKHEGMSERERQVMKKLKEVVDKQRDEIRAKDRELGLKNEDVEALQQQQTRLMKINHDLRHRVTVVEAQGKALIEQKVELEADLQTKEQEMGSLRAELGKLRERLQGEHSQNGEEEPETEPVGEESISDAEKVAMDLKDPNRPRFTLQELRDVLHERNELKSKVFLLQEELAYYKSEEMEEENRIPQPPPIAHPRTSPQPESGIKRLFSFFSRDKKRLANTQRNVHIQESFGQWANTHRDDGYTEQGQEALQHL

binding, binds:
COX5A (from UniProt P20674 42-150)
NDUFA2 (from UniProt O43678 1-99)
Rab10 (from UniProt P61026 1-200)
endogenous TMEM55B (from UniProt Q86T03-2 1-284)
B1
